Source: patent US20240016901A1, “COMPOSITIONS AND METHODS FOR PREVENTING AND TREATING SARS-COV-2 INFECTION” (priority 2020, published 2024)
For at least one compound, name, drawing or mass did not settle the structure.

Each compound was assayed on SARS-CoV-2. Details: Huh-7 cells.
Type: cell-based

Row | Compound | antiviral activity against SARS-CoV-2 (in words)
1 | Cc1cnc(Nc2ccc(OCCN3CCCC3)cc2)nc1Nc1cccc(S(=O)(=O)NC(C)(C)C)c1 [Fedratinib] | the only one active
2 | CCS(=O)(=O)N1CC(CC#N)(n2cc(-c3ncnc4[nH]ccc34)cn2)C1 [baricitinib] | the latter was the only one active
3 | N#CC[C@H](C1CCCC1)n1cc(-c2ncnc3[nH]ccc23)cn1 [ruxolitinib] | the latter was the only one active
